Measured values taken from paper PMC10455450.

Sequences of proteins named here, by UniProt entry; tags and fusion partners are left off.
UniProt Q9NZJ0: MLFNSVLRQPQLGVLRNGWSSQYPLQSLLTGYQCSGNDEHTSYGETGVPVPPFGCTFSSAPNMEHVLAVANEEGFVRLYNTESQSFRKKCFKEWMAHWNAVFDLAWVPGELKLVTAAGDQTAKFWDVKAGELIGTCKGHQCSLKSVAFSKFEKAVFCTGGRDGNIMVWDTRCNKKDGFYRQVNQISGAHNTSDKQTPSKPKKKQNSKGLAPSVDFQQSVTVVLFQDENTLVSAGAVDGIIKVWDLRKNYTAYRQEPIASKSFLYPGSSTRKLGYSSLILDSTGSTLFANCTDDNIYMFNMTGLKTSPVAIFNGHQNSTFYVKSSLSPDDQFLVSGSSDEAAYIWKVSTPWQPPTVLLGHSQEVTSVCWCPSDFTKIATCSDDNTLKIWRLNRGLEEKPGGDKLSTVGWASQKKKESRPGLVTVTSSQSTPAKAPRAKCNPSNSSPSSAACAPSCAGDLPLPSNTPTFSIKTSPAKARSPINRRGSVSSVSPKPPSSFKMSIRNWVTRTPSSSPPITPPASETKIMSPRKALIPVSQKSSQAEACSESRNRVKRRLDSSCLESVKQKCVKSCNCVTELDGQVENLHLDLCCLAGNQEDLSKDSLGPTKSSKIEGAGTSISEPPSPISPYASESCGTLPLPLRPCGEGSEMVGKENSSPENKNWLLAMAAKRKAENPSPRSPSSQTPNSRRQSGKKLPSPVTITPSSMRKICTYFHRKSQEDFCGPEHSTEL
UniProt Q96GC9: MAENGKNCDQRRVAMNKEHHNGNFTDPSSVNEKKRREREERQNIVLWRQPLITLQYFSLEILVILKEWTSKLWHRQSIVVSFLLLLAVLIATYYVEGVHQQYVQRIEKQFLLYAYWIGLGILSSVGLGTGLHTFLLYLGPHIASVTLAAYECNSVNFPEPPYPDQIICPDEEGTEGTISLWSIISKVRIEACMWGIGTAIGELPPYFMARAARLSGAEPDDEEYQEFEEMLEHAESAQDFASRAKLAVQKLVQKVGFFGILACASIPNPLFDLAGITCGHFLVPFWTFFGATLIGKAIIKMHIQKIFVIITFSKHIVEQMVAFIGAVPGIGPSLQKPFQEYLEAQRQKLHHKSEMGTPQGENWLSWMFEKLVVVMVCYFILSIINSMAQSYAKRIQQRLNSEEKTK

Key:
[1] = target: FLAG–HA–Cdt2 (cell division cycle protein cdt2, from pcDNA3–2xFLAG–2xHA–Cdt2) (human) (UniProt Q9NZJ0); experiment: affinity purification with mass spectrometry; HEK293T transfected with Flag–HA-tagged Cdt2; CSK-soluble fraction; sequential immunoprecipitation with anti-FLAG (eluted with FLAG peptide) and anti-HA; mass spectrometry
[2] = target: FLAG–HA–Cdt2 (cell division cycle protein cdt2, from pcDNA3–2xFLAG–2xHA–Cdt2) (human) (UniProt Q9NZJ0); experiment: affinity purification with mass spectrometry; HEK293T transfected with Flag–HA-tagged Cdt2; chromatin cell extract; sequential immunoprecipitation with anti-FLAG (eluted with FLAG peptide) and anti-HA; mass spectrometry

## Vacuole Membrane Protein 1 (VMP1), endogenous (from UniProt Q96GC9 1-406)
[1]
  binding: binds
[2]
  binding: no binding (only in the chromatin-linked fraction)

These are yes or no findings as the source states them, for the method shown. Binding seen in cells or lysates may run through a third protein. Here binding means that the protein was enriched with, or labelled near, the bait; the list need not be complete. For some assays here: A no says only that the protein was not detected with the bait.
